Differences between knockout arms are mostly noise.
Tested on: SKBR3
Experiment: relative cell number vs DMSO control (72 h) (% of DMSO); higher = less growth inhibition (more cells)
Method: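 QMAP-Seq: a pool of 5 breast cancer cell lines (ZR-75-1, SKBR3, HCC-38, MDA-MB-231, BT-20), each carrying 12 doxycycline-inducible Cas9 sgRNA perturbations (11 knockouts plus non-targeting sgNT), was treated with compounds for 72 h at four 10-fold doses (10 nM-10 uM or 1 nM-1 uM range). Barcodes were amplified and sequenced, and cell number was interpolated from 293T spike-in standard curves. The result is expressed as % of the median of DMSO wells. Two biological replicates.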

N[C@@H](CC(=O)N1CCn2c(nnc2C(F)(F)F)C1)Cc1cc(F)c(F)cc1F [Sitagliptin]
Settings | relative cell number
sgRNA knockout: sgATF3, 10 nM | 111
sgRNA knockout: sgATF3, 100 nM | 112
sgRNA knockout: sgATF3, 1000 nM | 112
sgRNA knockout: sgATF3, 10000 nM | 91.1
sgRNA knockout: sgATF4, 10 nM | 94.3
sgRNA knockout: sgATF4, 100 nM | 98.7
sgRNA knockout: sgATF4, 1000 nM | 105
sgRNA knockout: sgATF4, 10000 nM | 99.4
sgRNA knockout: sgATF6, 10 nM | 119
sgRNA knockout: sgATF6, 100 nM | 96.1
sgRNA knockout: sgATF6, 1000 nM | 127
sgRNA knockout: sgATF6, 10000 nM | 113
sgRNA knockout: sgATG7, 10 nM | 103
sgRNA knockout: sgATG7, 100 nM | 87.4
sgRNA knockout: sgATG7, 1000 nM | 89
sgRNA knockout: sgATG7, 10000 nM | 111
sgRNA knockout: sgERN1, 10 nM | 96.4
sgRNA knockout: sgERN1, 100 nM | 111
sgRNA knockout: sgERN1, 1000 nM | 112
sgRNA knockout: sgERN1, 10000 nM | 95.4
sgRNA knockout: sgHSF1, 10 nM | 108
sgRNA knockout: sgHSF1, 100 nM | 79.3
sgRNA knockout: sgHSF1, 1000 nM | 108
sgRNA knockout: sgHSF1, 10000 nM | 110.5
sgRNA knockout: sgHSF2, 10 nM | 99.4
sgRNA knockout: sgHSF2, 100 nM | 97.7
sgRNA knockout: sgHSF2, 1000 nM | 104
sgRNA knockout: sgHSF2, 10000 nM | 87.6
sgRNA knockout: sgKEAP1, 10 nM | 92.5
sgRNA knockout: sgKEAP1, 100 nM | 92.5
sgRNA knockout: sgKEAP1, 1000 nM | 95.5
sgRNA knockout: sgKEAP1, 10000 nM | 104
sgRNA knockout: sgNFE2L2, 10 nM | 121
sgRNA knockout: sgNFE2L2, 100 nM | 109
sgRNA knockout: sgNFE2L2, 1000 nM | 103
sgRNA knockout: sgNFE2L2, 10000 nM | 91.1
sgRNA knockout: sgSLC35F2, 10 nM | 116
sgRNA knockout: sgSLC35F2, 100 nM | 73.6
sgRNA knockout: sgSLC35F2, 1000 nM | 103
sgRNA knockout: sgSLC35F2, 10000 nM | 92.7
sgRNA knockout: sgXBP1, 10 nM | 95.7
sgRNA knockout: sgXBP1, 100 nM | 100
sgRNA knockout: sgXBP1, 1000 nM | 117
sgRNA knockout: sgXBP1, 10000 nM | 81.56

Source: the supplement of paper PMC7661543
